Structures can show the parent of a compound that is named as a salt.
Tested on: A549 human lung cancer cells
Assay: Fluorescence microscopy, cellular localisation, Examples 2 and 4
Assay type: cell-based
Conditions: 4-7 h, Mitotracker Red / Hoechst overlay

COc1cccc2c1C(=O)c1c(O)c3c(c(O)c1C2=O)C[C@@](O)(C(=O)CO)C[C@@H]3O[C@H]1C[C@H](N)[C@H](O)[C@H](C)O1 [Doxorubicin•HCl, Doxorubicin]
cellular localisation (listed as Doxorubicin·HCl): mainly the nucleus | cellular localisation (listed as doxorubicin): nuclear localization
